{"source": "the supplement of paper PMC8728848", "binders": {"B1": {"name": "FimA (Actinomyces oris) (protein)", "chain": "MHHHHHHSSGVDLGTENLYFQSNAETPNYGNIKTDATGSLVIHKHLTGGGKDIGTPTGTAQNADDKGPAVEGVVFTAYPITDINLKDPAGWDTISNLSRTGVPDSACANPAAPTLGAHQFGTPKVSPATTKEGLATITEMPVQAYLVCETTTPGDIVQKAKPFVVTIPHPNTAAGADGQWIYDVNVYPKNEAIDVDKTIQAQKLNGYGVGSLIKFPVESTAPTLDAKSFYKYFQLKDTLDERLSEVTATDVSLEGTPLQPTDYKVETKQQTVTVTFTAEGLKKIKAAPGKKVSAVFQGKVTKAGNGAITNRAQVISDTLYAEQPPTPETPPTDPENPPTSDEVISRWGDLSIKKVDTHQQGQTKAGLQGAQFQLYKAKNAYANTCSNEKEGAPIAINGQTTLTTDAQGAIDIKGLFISDSIDGADRDNQVNAMERCYVLVETKAPAGYVLPAGNGAATPVKVKAGEETTDNVTVENTKQSVPGLPLTG"}}, "assay_in_all_cases": "glycan array binding signal (z-score within array); higher = stronger binding", "settings_in_all_cases": "glycan notation: IUPAC condensed, linker removed", "key": {"[1]": {"target": "Fuc(a1-2)Gal(b1-4)[Fuc(a1-3)]GlcNAc(b1-2)Man(a1-3)[Fuc(a1-2)Gal(b1-4)[Fuc(a1-3)]GlcNAc(b1-2)Man(a1-6)]Man(b1-4)GlcNAc(b1-4)[Fuc(a1-6)]GlcNAc", "procedure,_shortened": "(§1)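 From the Consortium for Functional Glycomics database, 3228 arrays were curated, keeping only those whose protein sequence was available. Binding is given as a within-array Z-score averaged across arrays sharing a protein sequence and across linkers. Negative Z-scores can be read as non-binding.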"}, "[2]": {"target": "Fuc(a1-2)Gal(b1-4)[Fuc(a1-3)]GlcNAc(b1-2)[Fuc(a1-2)Gal(b1-4)[Fuc(a1-3)]GlcNAc(b1-4)]Man(a1-3)[Fuc(a1-2)Gal(b1-4)[Fuc(a1-3)]GlcNAc(b1-2)Man(a1-6)]Man(b1-4)GlcNAc(b1-4)GlcNAc", "procedure,_shortened": "as §1"}, "[3]": {"target": "Fuc(a1-2)Gal(b1-4)[Fuc(a1-3)]GlcNAc(b1-3)Gal(b1-4)[Fuc(a1-3)]GlcNAc", "procedure,_shortened": "as §1"}, "[4]": {"target": "Fuc(a1-2)Gal(b1-4)[Fuc(a1-3)]GlcNAc(b1-3)Gal(b1-4)[Fuc(a1-3)]GlcNAc(b1-3)Gal(b1-4)[Fuc(a1-3)]GlcNAc", "procedure,_shortened": "as §1"}, "[5]": {"target": "Fuc(a1-2)Gal(b1-4)[Fuc(a1-3)]GlcNAc(b1-3)GalNAc", "procedure,_shortened": "as §1"}, "[6]": {"target": "Fuc(a1-2)Gal(b1-4)[Fuc(a1-3)]GlcNAc(b1-3)[Neu5Ac(a2-6)Gal(b1-4)GlcNAc(b1-6)]Gal(b1-4)Glc", "procedure,_shortened": "as §1"}, "[7]": {"target": "Fuc(a1-2)Gal3S(b1-4)GlcNAc", "procedure,_shortened": "as §1"}, "[8]": {"target": "Fuc(a1-2)Gal6S(b1-3)GlcNAc", "procedure,_shortened": "as §1"}, "[9]": {"target": "Fuc(a1-2)Gal6S(b1-3)GlcNAc6S", "procedure,_shortened": "as §1"}, "Fuc(a1-2)Gal6S(b1-4)Glc": {"target": "Fuc(a1-2)Gal6S(b1-4)Glc", "procedure,_shortened": "as §1"}, "[10]": {"target": "Fuc(a1-2)Gal6S(b1-4)Glc6S", "procedure,_shortened": "as §1"}, "Fuc(a1-2)[Gal(a1-3)]Gal": {"target": "Fuc(a1-2)[Gal(a1-3)]Gal", "procedure,_shortened": "as §1"}, "[11]": {"target": "Fuc(a1-2)[Gal(a1-3)]Gal(b1-3)GalNAc", "procedure,_shortened": "as §1"}, "[12]": {"target": "Fuc(a1-2)[Gal(a1-3)]Gal(b1-3)GalNAc(b1-3)Gal(a1-4)Gal(b1-4)Glc", "procedure,_shortened": "as §1"}, "[13]": {"target": "Fuc(a1-2)[Gal(a1-3)]Gal(b1-3)GlcNAc", "procedure,_shortened": "as §1"}, "[14]": {"target": "Fuc(a1-2)[Gal(a1-3)]Gal(b1-3)GlcNAc(b1-2)Man(a1-3)[Fuc(a1-2)[Gal(a1-3)]Gal(b1-3)GlcNAc(b1-2)Man(a1-6)]Man(b1-4)GlcNAc(b1-4)GlcNAc", "procedure,_shortened": "as §1"}, "[15]": {"target": "Fuc(a1-2)[Gal(a1-3)]Gal(b1-3)GlcNAc(b1-2)Man(a1-3)[Fuc(a1-2)[Gal(a1-3)]Gal(b1-3)GlcNAc(b1-2)Man(a1-6)]Man(b1-4)GlcNAc(b1-4)[Fuc(a1-6)]GlcNAc", "procedure,_shortened": "as §1"}, "[16]": {"target": "Fuc(a1-2)[Gal(a1-3)]Gal(b1-3)GlcNAc(b1-3)GalNAc", "procedure,_shortened": "as §1"}, "[17]": {"target": "Fuc(a1-2)[Gal(a1-3)]Gal(b1-3)GlcNAc(b1-6)GalNAc", "procedure,_shortened": "as §1"}, "[18]": {"target": "Fuc(a1-2)[Gal(a1-3)]Gal(b1-4)Glc", "procedure,_shortened": "as §1"}, "[19]": {"target": "Fuc(a1-2)[Gal(a1-3)]Gal(b1-4)GlcNAc", "procedure,_shortened": "as §1"}, "[20]": {"target": "Fuc(a1-2)[Gal(a1-3)]Gal(b1-4)GlcNAc(b1-2)Man", "procedure,_shortened": "as §1"}, "[21]": {"target": "Fuc(a1-2)[Gal(a1-3)]Gal(b1-4)GlcNAc(b1-2)Man(a1-3)[Fuc(a1-2)[Gal(a1-3)]Gal(b1-4)GlcNAc(b1-2)Man(a1-6)]Man(b1-4)GlcNAc(b1-4)GlcNAc", "procedure,_shortened": "as §1"}, "[22]": {"target": "Fuc(a1-2)[Gal(a1-3)]Gal(b1-4)GlcNAc(b1-2)Man(a1-3)[Fuc(a1-2)[Gal(a1-3)]Gal(b1-4)GlcNAc(b1-2)Man(a1-6)]Man(b1-4)GlcNAc(b1-4)[Fuc(a1-6)]GlcNAc", "procedure,_shortened": "as §1"}, "[23]": {"target": "Fuc(a1-2)[Gal(a1-3)]Gal(b1-4)GlcNAc(b1-3)GalNAc", "procedure,_shortened": "as §1"}, "[24]": {"target": "Fuc(a1-2)[Gal(a1-3)]Gal(b1-4)GlcNAc(b1-3)[Fuc(a1-2)[Gal(a1-3)]Gal(b1-4)GlcNAc(b1-6)]GalNAc", "procedure,_shortened": "as §1"}, "[25]": {"target": "Fuc(a1-2)[Gal(a1-3)]Gal(b1-4)GlcNAc(b1-6)GalNAc", "procedure,_shortened": "as §1"}, "[26]": {"target": "Fuc(a1-2)[Gal(a1-3)]Gal(b1-4)[Fuc(a1-3)]Glc", "procedure,_shortened": "as §1"}, "[27]": {"target": "Fuc(a1-2)[Gal(a1-3)]Gal(b1-4)[Fuc(a1-3)]GlcNAc", "procedure,_shortened": "as §1"}, "[28]": {"target": "Fuc(a1-2)[Gal(a1-3)]Gal(b1-4)[Fuc(a1-3)]GlcNAc(b1-3)GalNAc", "procedure,_shortened": "as §1"}, "[29]": {"target": "Fuc(a1-2)[Gal(a1-4)]Gal(b1-4)GlcNAc", "procedure,_shortened": "as §1"}, "[30]": {"target": "Fuc(a1-2)[GalNAc(a1-3)]Gal", "procedure,_shortened": "as §1"}, "[31]": {"target": "Fuc(a1-2)[GalNAc(a1-3)]Gal(b1-3)GalNAc(a1-3)[Fuc(a1-2)]Gal(b1-4)GlcNAc", "procedure,_shortened": "as §1"}, "[32]": {"target": "Fuc(a1-2)[GalNAc(a1-3)]Gal(b1-3)GalNAc(b1-3)Gal(a1-4)Gal(b1-4)Glc", "procedure,_shortened": "as §1"}, "[33]": {"target": "Fuc(a1-2)[GalNAc(a1-3)]Gal(b1-3)GlcNAc", "procedure,_shortened": "as §1"}, "[34]": {"target": "Fuc(a1-2)[GalNAc(a1-3)]Gal(b1-3)GlcNAc(b1-2)Man(a1-3)[Fuc(a1-2)[GalNAc(a1-3)]Gal(b1-3)GlcNAc(b1-2)Man(a1-6)]Man(b1-4)GlcNAc(b1-4)GlcNAc", "procedure,_shortened": "as §1"}, "[35]": {"target": "Fuc(a1-2)[GalNAc(a1-3)]Gal(b1-3)GlcNAc(b1-2)Man(a1-3)[Fuc(a1-2)[GalNAc(a1-3)]Gal(b1-3)GlcNAc(b1-2)Man(a1-6)]Man(b1-4)GlcNAc(b1-4)[Fuc(a1-6)]GlcNAc", "procedure,_shortened": "as §1"}, "[36]": {"target": "Fuc(a1-2)[GalNAc(a1-3)]Gal(b1-3)GlcNAc(b1-3)GalNAc", "procedure,_shortened": "as §1"}}, "note": "This is one part of the list.", "data": [{"binder": "B1", "values": [{"measurement": "glycan array binding signal (z-score)", "setting": "[1]", "value": 0.32}, {"measurement": "glycan array binding signal (z-score)", "setting": "[2]", "value": -0.358}, {"measurement": "glycan array binding signal (z-score)", "setting": "[3]", "value": 0.481}, {"measurement": "glycan array binding signal (z-score)", "setting": "[4]", "value": -0.317}, {"measurement": "glycan array binding signal (z-score)", "setting": "[5]", "value": 1.3}, {"measurement": "glycan array binding signal (z-score)", "setting": "[6]", "value": -0.445}, {"measurement": "glycan array binding signal (z-score)", "setting": "[7]", "value": -0.091}, {"measurement": "glycan array binding signal (z-score)", "setting": "[8]", "value": 0.258}, {"measurement": "glycan array binding signal (z-score)", "setting": "[9]", "value": -0.064}, {"measurement": "glycan array binding signal (z-score)", "setting": "Fuc(a1-2)Gal6S(b1-4)Glc", "value": 0.428}, {"measurement": "glycan array binding signal (z-score)", "setting": "[10]", "value": -0.826}, {"measurement": "glycan array binding signal (z-score)", "setting": "Fuc(a1-2)[Gal(a1-3)]Gal", "value": 0.708}, {"measurement": "glycan array binding signal (z-score)", "setting": "[11]", "value": 0.964}, {"measurement": "glycan array binding signal (z-score)", "setting": "[12]", "value": 0.236}, {"measurement": "glycan array binding signal (z-score)", "setting": "[13]", "value": 0.004}, {"measurement": "glycan array binding signal (z-score)", "setting": "[14]", "value": -1}, {"measurement": "glycan array binding signal (z-score)", "setting": "[15]", "value": -0.466}, {"measurement": "glycan array binding signal (z-score)", "setting": "[16]", "value": -0.525}, {"measurement": "glycan array binding signal (z-score)", "setting": "[17]", "value": -0.362}, {"measurement": "glycan array binding signal (z-score)", "setting": "[18]", "value": -0.096}, {"measurement": "glycan array binding signal (z-score)", "setting": "[19]", "value": 0.372}, {"measurement": "glycan array binding signal (z-score)", "setting": "[20]", "value": 0.046}, {"measurement": "glycan array binding signal (z-score)", "setting": "[21]", "value": 5.11}, {"measurement": "glycan array binding signal (z-score)", "setting": "[22]", "value": 0.074}, {"measurement": "glycan array binding signal (z-score)", "setting": "[23]", "value": -0.523}, {"measurement": "glycan array binding signal (z-score)", "setting": "[24]", "value": -0.46}, {"measurement": "glycan array binding signal (z-score)", "setting": "[25]", "value": -0.757}, {"measurement": "glycan array binding signal (z-score)", "setting": "[26]", "value": -0.593}, {"measurement": "glycan array binding signal (z-score)", "setting": "[27]", "value": -0.589}, {"measurement": "glycan array binding signal (z-score)", "setting": "[28]", "value": -0.23}, {"measurement": "glycan array binding signal (z-score)", "setting": "[29]", "value": 5.14}, {"measurement": "glycan array binding signal (z-score)", "setting": "[30]", "value": -0.675}, {"measurement": "glycan array binding signal (z-score)", "setting": "[31]", "value": 0.088}, {"measurement": "glycan array binding signal (z-score)", "setting": "[32]", "value": -0.724}, {"measurement": "glycan array binding signal (z-score)", "setting": "[33]", "value": -0.442}, {"measurement": "glycan array binding signal (z-score)", "setting": "[34]", "value": -0.552}, {"measurement": "glycan array binding signal (z-score)", "setting": "[35]", "value": -0.915}, {"measurement": "glycan array binding signal (z-score)", "setting": "[36]", "value": -0.36}]}]}
